Laboratory results published in patent EP0226973A2, “4-Bis(2'-hydroxyethyl)amino-1-(3'-hydroxypropyl)amino-2-nitro-benzene, process for its preparation and means for dyeing hair” (Wella Aktiengesellschaft, priority 1985, dated 1987).

Experiment: Hair dyeing test on human hair
From the text: Ihre Anwendung erfolgt in üblicher Weise durch Aufbringen einer für die Haarfärbung ausreichenden Menge des Mittels auf die Haare, mit denen es eine Zeitlang, vorzugsweise zwischen 5 und 30 Minuten, in Berührung bleibt. Anschlie-ßend werden die Haare mit Wasser, gegebenenfalls noch mit einer schwachen organischen Säure, gespült und sodann getrocknet. Als schwache organische Säure können beispielsweise Essigsäure, Zitronensäure, Weinsäure und ähnliche Verwendung finden.
Die Anwendung dieser Haarfärbemittel mit zusätzlicher Festigung erfolgt in bekannter und üblicher Weise durch Befeuchten des Haares mit dem Festiger, Festlegen (Einlegen) des Haares zur Frisur und anschließende Trocknung.
Das Haarfärbemittel wird auf weiße menschliche Haare aufgetragen und l0 Minuten lang einwirken gelassen.
Weiße menschliche Haare werden mit der festigenden Färbelösung zur Frisur eingelegt und getrocknet.
Das Haarfärbemittel wird auf graue menschliche Haare aufgetragen und und 20 Minuten lang einwirken gelassen.
50 g des vorstehenden Haarfärbemittels werden auf graue menschliche Haare aufgetragen und nach einer Einwirkungszeit von 20 Minuten mit Wasser ausgespült.

SMILES | Ausspülen beim Waschen der Haare | Farbechtheit | Intensität der Färbung der Haare (compared with Farbstoff (IV)) | Farbtöne bei Färbungen (äquimolare Konzentrationen, compared with Farbstoff (IV))
O=[N+]([O-])c1cc(N(CCO)CCO)ccc1NCCO [Farbstoff (IV), 4-Bis(2′-hydroxyethyl)amino-l-(2′-hydroxyethyl)amino-2-nitro-benzols] | sehr schnell wieder ausgespült | nicht zufriedenstellend |  | 
O=[N+]([O-])c1cc(N(CCO)CCO)ccc1NCCCO [Farbstoff (I), 4-Bis(2′-hydroxyethyl)amino-l-(3′-hydroxypropyl)amino-2-nitro-benzol] |  |  | viel intensiver | deutlich intensivere Farbtöne
